Reference: PubChem BioAssay AID493246 (Drosophila RNAi Screening Center, 2011)
The deposit covers about 21,000 reagents; shown is a random part of those that have a named target and a result. In the full data, 429 (2%) were called active. 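Values are raw and not normalised between plates; calls rest on per-plate z-scores that were not deposited.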 Entries without a mark were called inactive. Not stated in the record: the amount of reagent, the time to read-out.

- Screen: 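Identify essential fly genes by loss of cell viability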 (primary screen)
- Cells: Drosophila Kc and S2R+ cells
- Reagents: long dsRNA against Drosophila genes
- Measured: 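Cell number per well after knock-down, printed as raw plate values; calls were based on per-plate z-scores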
- Direction: Kc cell number and S2R+ cell number: higher = more cells remaining
- Hit rule: 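Active when the per-plate z-score of cell number is 3 or more in the direction of fewer cells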

The opening 2 records, to show the layout:
gene	dsRNA	Kc cell number, rep 1	Kc cell number, rep 2	S2R+ cell number, rep 1	S2R+ cell number, rep 2
CG33465	DRSC05587	1.58e6	1.62e6	1.08e6	1.20e6
AIF	DRSC00696	1.24e6	1.23e6	7.91e5	7.90e5

Results, from the start:
gene	dsRNA	Kc cell number, rep 1	Kc cell number, rep 2	S2R+ cell number, rep 1	S2R+ cell number, rep 2
CG33465	DRSC05587	1.58e6	1.62e6	1.08e6	1.20e6
AIF	DRSC00696	1.24e6	1.23e6	7.91e5	7.90e5
emei	DRSC10897	1.54e6	1.55e6	1.04e6	1.17e6
Psc	DRSC07518	1.49e6	1.46e6	1.15e6	1.34e6
wake	DRSC16148	1.60e6	1.54e6	9.95e5	1.07e6
wake	DRSC16149	1.52e6	1.47e6	9.96e5	1.08e6
MESR4	DRSC06901	1.57e6	1.61e6	9.34e5	1.04e6
CG42735 (retired record)	DRSC00921	1.52e6	1.54e6	1.07e6	1.18e6
Tsp68C	DRSC09295	1.62e6	1.70e6	1.10e6	1.34e6
mRpL19	DRSC16367	1.28e6	1.30e6	9.25e5	1.11e6
Rh2	DRSC16821	1.39e6	1.48e6	1.11e6	1.14e6
CG9514	DRSC20190	1.46e6	1.50e6	1.13e6	1.17e6
CG9514	DRSC20191	1.54e6	1.51e6	1.08e6	1.15e6
mof	DRSC18795	1.52e6	1.59e6	1.07e6	1.15e6
CG15812	DRSC08479	1.43e6	1.43e6	1.00e6	1.11e6
CG5254	DRSC18611	1.42e6	1.41e6	9.75e5	1.12e6
spz6	DRSC04533	1.16e6	1.35e6	9.15e5	8.44e5
CG15530	DRSC15067	1.43e6	1.46e6	9.91e5	1.11e6
CG32447	DRSC11732	1.58e6	1.64e6	1.23e6	1.32e6
CG32447	DRSC11805	1.34e6	1.34e6	1.38e6	1.45e6
CG9776	DRSC12127	1.64e6	1.70e6	1.46e6	1.48e6
CG14014	DRSC02345	1.71e6	2.09e6	1.07e6	1.21e6
NFAT	DRSC18991	1.36e6	1.35e6	8.75e5	1.03e6
NFAT	DRSC19393	1.69e6	1.58e6	1.10e6	1.18e6
CG13807	DRSC08342	1.42e6	1.31e6	9.74e5	1.21e6
smo	DRSC00837	1.35e6	1.40e6	9.76e5	8.99e5
CG14000	DRSC02332	1.44e6	1.33e6	1.12e6	1.26e6
RhoGAP19D	DRSC20499	1.63e6	1.64e6	9.89e5	1.04e6
RhoGAP19D	DRSC20500	1.53e6	1.63e6	1.11e6	1.20e6
CG15286	DRSC01907	1.64e6	1.67e6	1.34e6	1.50e6
Galt	DRSC03161	1.27e6	1.27e6	6.05e5	7.25e5
Trs20	DRSC10489	1.30e6	1.40e6	1.19e6	1.33e6
dop	DRSC10655	1.34e6	1.42e6	1.24e6	1.27e6
CG12885	DRSC14572	1.53e6	1.64e6	9.90e5	1.06e6
CG15269	DRSC01942	1.57e6	1.69e6	1.16e6	1.29e6
Nup43	DRSC16279	1.36e6	1.49e6	9.79e5	1.00e6
Trf4-1	DRSC17775	1.58e6	1.71e6	1.06e6	1.19e6
Surf1	DRSC11295	1.48e6	1.40e6	8.52e5	9.36e5
Surf1	DRSC11394	1.41e6	1.46e6	1.19e6	1.19e6
CG4653	DRSC19909	1.78e6	1.68e6	1.13e6	1.20e6
Dlip1	DRSC18460	1.71e6	1.62e6	1.08e6	1.21e6
sti	DRSC09739	1.59e6	1.64e6	1.20e6	1.34e6
sti	DRSC09740	1.50e6	1.55e6	1.25e6	1.36e6
Hdc	DRSC07439	1.34e6	1.36e6	1.16e6	1.22e6
CG14306 (retired record)	DRSC14785	1.23e6	1.22e6	1.09e6	1.17e6
CG13160	DRSC06284	1.72e6	1.84e6	1.48e6	1.61e6
Setd3	DRSC17840	1.46e6	1.49e6	1.04e6	1.22e6
Setd3	DRSC18269	1.52e6	1.46e6	1.05e6	1.17e6
CG7264	DRSC10793	1.44e6	1.47e6	1.07e6	1.20e6
CG14196	DRSC19551	1.46e6	1.50e6	1.05e6	1.11e6
Fign	DRSC00592	1.52e6	1.53e6	8.70e5	9.76e5
Had2	DRSC05971	1.48e6	1.46e6	1.24e6	1.26e6
Or69a	DRSC11243	1.31e6	1.39e6	1.22e6	1.33e6
phol	DRSC10367	1.34e6	1.39e6	1.18e6	1.19e6
Nelf-E	DRSC10567	1.35e6	1.47e6	9.87e5	1.11e6
CG5302 (retired record)	DRSC15764	1.43e6	1.44e6	1.05e6	1.20e6
CG5302 (retired record)	DRSC15765	1.44e6	1.42e6	1.11e6	1.21e6
CG13577	DRSC04213	1.41e6	1.50e6	1.26e6	1.30e6
CG1371	DRSC06409	1.30e6	1.35e6	1.16e6	1.18e6
